These are yes or no findings as the source states them, for the method shown. Binding seen in cells or lysates may run through a third protein. Some binding calls cover weakened binding; strength is not graded here.
Biological target: GRIN1, wild-type (UniProt Q05586)
Test: co-immunoprecipitation with anti-GRIN1 from transfected HEK293T cells, anti-GRIN2A immunoblot

Substance: human GRIN2A (glutamate receptor, ionotropic, N-methyl D-aspartate 2A), wild-type (from UniProt Q12879 23-1464)
- binding: binds
